Reference: PMC1526748

Tested on: PPARgamma + RXRalpha
Test: EMSA
Conditions: mutated probe, complex abolished; 5-15 ug TC-7 nuclear extract, 25 mM HEPES (pH not stated), 100 mM KCl, 0.1% NP-40, 1 mM DTT, 5% glycerol, 1 ug poly(dI-dC), 20 fmol probe in 20 ul; protein in an extract; label: 5'-32P

**Q.** Does “GCTTGGAAATTATGCTTTATGCAAACAT (double strand) [BCMO1 PPRE mutated]” bind?
**A.** no binding

For at least one entry, the source does not settle the construct or the ends of the probe. Where cells or extracts were used, other partners may take part. Negatives hold for the conditions tested. At least one verdict was read from the data and is not stated in words by the source.
